Data from PubChem BioAssay AID1347423 (Functional Genomics Laboratory (NCATS/FGL), 2020).
The whole screen tested about 52,000 sequences, of which about 210 (0.4%) were called active.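 Rule for the calls: active = gene whose silencing raises cell survival under the drug, median off-target-corrected z-score across its silencing RNAs 2 or more; inactive = the rest.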 Some of the results follow.

Assay: Resistance to Poly (ADP-Ribose) Polymerase inhibitor: Gene Identification via Genome-wide siRNA Screen
Conditions: mouse BRCA2 R2336H ES cells, olaparib, CellTiter-Glo viability; hits give high values
How it was run: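 Mouse BRCA2 R2336H ES cells were reverse-transfected with siRNA (20 nM final), treated at 48 h with 500 nM olaparib, and read by CellTiter-Glo after 72 h. Scores: MAD-based z per siRNA, median per gene, seed off-target correction.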

Row | Sequence | z-score
1 | CCCGUCACCACUUAACAUGTT against 6530401P13 | inactive: 0.703
2 | GGACCAUCAGAGGAGAACUTT against Cuedc2 | inactive: 0.0577
3 | GGAGAUUAUUAACUUCACCTT against Hcn3 | inactive: -0.386
4 | GGAAGUUUGGUGGUCCAGUTT against 2410004L22Rik | inactive: -2.75
5 | GCCUUUUCCUGGUACUCGGTT against Ceacam13 | inactive: 1.27
6 | CGGAUGGAGCUAUGAUGUGTT against Ndufs4 | inactive: -0.897
7 | GGCUUCGCUCUGGUUUACUTT against Rap1b | inactive: 0.302
8 | GGUGAAACAGCGAAUAGGUTT against 2410005H09Rik | inactive: -0.437
9 | GGGUGAAUUAAAUUAGUUGTT against C130079G13Rik | inactive: 0.0696
10 | GGAAGUGAUUUACAGUUUCTT against 2310058J06Rik | inactive: -0.344
11 | AACAUUGCUUACCUUAGUGTT against Mrgprb1 | inactive: 0.713
12 | GGUAGACAAGCUGUUUGAUTT against 4632415K11Rik | inactive: 0.819
13 | GGAAUGUCACUUUGACUCUTT against 6530401D17Rik | inactive: 0.127
14 | GGUGAUAUAUCCAUCAAAATT against 0610033I05Rik | inactive: 0.481
15 | GCUGCACAAGUGCAUUUUUTT against Srp14 | inactive: -1.4
16 | CAUUGUCAUUCUGCUGGCATT against Olfr1249 | inactive: 1.06
17 | GCAUCAGAGGGAUUUCACUTT against Slc35d3 | inactive: -1.02
18 | GCAUAUCCUCCAAAAGAAATT against 2010106E10Rik | inactive: -0.453
19 | GCCUUAUCCCUCAUGUUACTT against Pde1c | inactive: 1.14
20 | GGAAAAAUGGAAACCUAAGTT against 9130020G22Rik | inactive: 0.47
21 | GAUGCAGUGCAAAGUAUACTT against Cldn9 | inactive: -1.9
22 | GCAAAUUGAGCUCCUACUCTT against Traip | inactive: 1.03
23 | GGCACAAAUGAAUUCAUACTT against BC003267 | inactive: -1.67
24 | GGGUUCUGCAUGUUGAUUCTT against Chm | inactive: -0.121
25 | GGAGGUUUUCUGGUAGCUGTT against Rnf138 | inactive: -1.61
26 | GGAGACAGAGAAGAUUUGUTT against Mia2 | inactive: -1.33

Already shown: entries from further up.
Row | Sequence | z-score
7 | GGCUUCGCUCUGGUUUACUTT against Rap1b | inactive: 0.302
8 | GGUGAAACAGCGAAUAGGUTT against 2410005H09Rik | inactive: -0.437
9 | GGGUGAAUUAAAUUAGUUGTT against C130079G13Rik | inactive: 0.0696
10 | GGAAGUGAUUUACAGUUUCTT against 2310058J06Rik | inactive: -0.344
11 | AACAUUGCUUACCUUAGUGTT against Mrgprb1 | inactive: 0.713
12 | GGUAGACAAGCUGUUUGAUTT against 4632415K11Rik | inactive: 0.819
13 | GGAAUGUCACUUUGACUCUTT against 6530401D17Rik | inactive: 0.127
14 | GGUGAUAUAUCCAUCAAAATT against 0610033I05Rik | inactive: 0.481
15 | GCUGCACAAGUGCAUUUUUTT against Srp14 | inactive: -1.4
16 | CAUUGUCAUUCUGCUGGCATT against Olfr1249 | inactive: 1.06

Going on with the list.

Row | Sequence | z-score
27 | GGUACAGUUAACUACAAACTT against C130023O10Rik | inactive: 1.08
28 | GCCAGCGACCUUUAGUACATT against Cklfsf1 | inactive: -0.44
29 | GGCACUGAAAAGAAAGAAGTT against 2310010I16Rik | inactive: -1.52
30 | GGUUCAGAUAUCUCAGUAUTT against Rcor1 | inactive: 0.744
31 | GGACUAUAUGAGAUAAACUTT against Pask | inactive: -0.722
32 | GGCUGUGACUUGUUAAUCATT against AW049604 | inactive: -1.7
33 | AAUGAUGCCAUAAAGAGUGTT against Olfr114 | inactive: -1.05
34 | CCAUAGGUAUCAUUGCAAGTT against Tas2r139 | inactive: -0.382
35 | GGCCAAUUUGUUGAUUCCUTT against Rheb | inactive: 1.16
36 | GGUGCUGUGUUUACGUUUGTT against Rpgr | inactive: -1.19
37 | GGAAAAGCAAACCAGAAUCTT against Nr1d1 | inactive: 0.904
38 | GGUCUUUGAGAAGUACCACTT against Chst3 | inactive: 0.412
39 | CGAAGCAACAAGGAAAUUGTT against Anxa13 | inactive: 1.14
40 | GCUGAUGUGAAUCCAUCCATT against AL033326 | inactive: -0.488
41 | AUGGGACUCAUGUAAUGGUTT against 2410015A16Rik | inactive: 0.922
42 | CGGUAAUUGCAUUUUAAAGTT against Vps4b | inactive: 0.812
43 | GCUGAAUACCCUUUUAGUUTT against Atp2c1 | inactive: -0.0892
44 | CCUUUGUGACCAAGAUGGUTT against Ttyh3 | inactive: -0.779
45 | GGAUUUCCUUUUAAGACUUTT against Rab3il1 | inactive: 0.838
46 | GGCCACAGAAUUGAAAGAUTT against Il2 | inactive: -0.624
47 | GGACAUGAAGUGUAUAUAUTT against Il13ra2 | inactive: -1.91
48 | CCAGGUGCUAUGAGAUUAGTT against ORF21 | inactive: 0.606
49 | GCCUAUUCUUUUCGGGAUATT against Olfr39 | inactive: -1.74
50 | GGCACUUAAGUAUUCUUCATT against Wac | inactive: -1.02
51 | GGAUCUCCCUCUAAAUAUUTT against Hspca | inactive: 0.537
52 | AUAAAGAUGUUGCUGUUGCTT against Olfr44 | inactive: -0.687
